Some of the results follow. Single values are uncertain, as repeats are few or missing.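 The apoptosis fraction was the count of cleaved-PARP antibody-stained nuclei relative to all DNA-stained nuclei, imaged in 1,536-well plates. Screening doses were set so most cells survived, and baseline and induced cleaved-PARP levels vary greatly across cell lines.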
Tests used:
Test in all cases: cleaved PARP positive nuclei fraction relative to DMSO control; melanoma cells; higher = more apoptosis
Conditions in all cases: library dose: low library concentration; 72 h
MeWo = system: MeWo
RPMI7951 = system: RPMI7951
RVH-421 = system: RVH-421
SkMel28 = system: SkMel28
SkMel2 = system: SkMel2
SkMel30 = system: SkMel30
SkMel5 = system: SkMel5
UACC257 = system: UACC257
UACC62 = system: UACC62

Compound	cleaved PARP positive nuclei fraction (MeWo) [%]	cleaved PARP positive nuclei fraction (RPMI7951) [%]	cleaved PARP positive nuclei fraction (RVH-421) [%]	cleaved PARP positive nuclei fraction (SkMel28) [%]	cleaved PARP positive nuclei fraction (SkMel2) [%]	cleaved PARP positive nuclei fraction (SkMel30) [%]	cleaved PARP positive nuclei fraction (SkMel5) [%]	cleaved PARP positive nuclei fraction (UACC257) [%]	cleaved PARP positive nuclei fraction (UACC62) [%]
CC1(C)NC(=O)N(c2ccc([N+](=O)[O-])c(C(F)(F)F)c2)C1=O [nilutamide] + CO[C@@H]1[C@H](N(C)C(=O)c2ccccc2)C[C@H]2O[C@]1(C)n1c3ccccc3c3c4c(c5c6ccccc6n2c5c31)C(=O)NC4 [Midostaurin] (first compound 1 µM, partner dose 0.08 µM)	104	42.9	41.6	60.9	123	61.8	145	66.1	121
C[C@]1(c2nc3c(C(N)=O)cccc3[nH]2)CCCN1 [Veliparib] + O=c1cc(-c2cccc3c2Sc2ccccc2S3)oc(N2CCOCC2)c1 [KU55933] (first compound 1.4 µM, partner dose 1 µM)	95.5	74.9	91.1	125		334	116	46.2	145
Cc1nc(Nc2ncc(C(=O)Nc3c(C)cccc3Cl)s2)cc(N2CCN(CCO)CC2)n1 [dasatanib] + C[C@]1(c2nc3c(C(N)=O)cccc3[nH]2)CCCN1 [Veliparib] (first compound 0.004 µM, partner dose 1.4 µM)	106	97.5	207	60.5		99.7			139
Cc1nc(Nc2ncc(C(=O)Nc3c(C)cccc3Cl)s2)cc(N2CCN(CCO)CC2)n1 [dasatanib] + Cn1cc(/C=C2\C(=O)Nc3cccnc32)c2ccccc21 [GW441756] (first compound 0.004 µM, partner dose 0.4 µM)	112	189	125	132		27.2	34.1	112	70.3
Cc1ccc(NC(=O)c2cccc(N(C)C)c2)cc1NC(=O)c1ccc(O)cc1 + Oc1cc(-c2nc(-c3ccccc3)[nH]c2-c2ccncc2)ccc1Cl [L779450] (first compound 2 µM, partner dose 0.2 µM)	238	84.1	143	162		25.7	18	81.4	114
Cc1nc(Nc2ncc(C(=O)Nc3c(C)cccc3Cl)s2)cc(N2CCN(CCO)CC2)n1 [dasatanib] + NC(=O)Nc1cc(-c2cccc(F)c2)sc1C(=O)N[C@H]1CCCNC1 [AZD7762] (first compound 0.004 µM, partner dose 0.02 µM)	198	74.6	61.8	145		67.9	143	82.6	110
C[C@]1(c2nc3c(C(N)=O)cccc3[nH]2)CCCN1 [Veliparib] + Cc1cc(N2CCOCC2)cc2[nH]c(-c3c(NC[C@@H](O)c4cccc(Cl)c4)cc[nH]c3=O)nc12 [BMS536924] (first compound 1.4 µM, partner dose 0.2 µM)	60.8	163	83.3	72.3		138	71.8	188	140
Cc1cc(N2CCOCC2)cc2[nH]c(-c3c(NC[C@@H](O)c4cccc(Cl)c4)cc[nH]c3=O)nc12 + Oc1cc(-c2nc(-c3ccccc3)[nH]c2-c2ccncc2)ccc1Cl [L779450] (first compound 0.2 µM, partner dose 0.2 µM)	148	88.9	97.7	101		49.2	35	44.8	270
Cn1cncc1[C@@](N)(c1ccc(Cl)cc1)c1ccc2c(c1)c(-c1cccc(Cl)c1)cc(=O)n2C [tipifarnib] + N#Cc1c(O)c2c(-c3ccc(-c4ccccc4O)cc3)csc2[nH]c1=O [A769662] (first compound 0.01 µM, partner dose 2 µM)	51.5	272	17	151		66.2	60.9	128	186
CO[C@@H]1[C@H](N(C)C(=O)c2ccccc2)C[C@H]2O[C@]1(C)n1c3ccccc3c3c4c(c5c6ccccc6n2c5c31)C(=O)NC4 [Midostaurin] + c1cc(-c2cnn3cc(-c4ccc(OCCN5CCCCC5)cc4)cnc23)ccn1 [Dorsomorphin] (first compound 0.08 µM, partner dose 0.4 µM)	226	41.7	146	109		23.3	64	118	78.4
NC(=O)Nc1cc(-c2cccc(F)c2)sc1C(=O)N[C@H]1CCCNC1 + CCN(CC)CCCCNc1ncc2cc(-c3cc(OC)cc(OC)c3)c(NC(=O)NC(C)(C)C)nc2n1 [PD173074] (first compound 0.02 µM, partner dose 0.1 µM)	194	103	70.5	49.5		42.2	141	47.7	314
C=CCNC1=C2C[C@@H](C)C[C@H](OC)[C@H](O)[C@@H](C)/C=C(\C)[C@H](OC(N)=O)[C@@H](OC)/C=C\C=C(/C)C(=O)NC(=CC1=O)C2=O [Tanespimycin] + COc1ccc(-c2ccc3c(N4CCOCC4)nc(N4C[C@@H](C)O[C@@H](C)C4)nc3n2)cc1CO [KU0063794] (first compound 0.002 µM, partner dose 0.02 µM)	42.1	110	99.8	53.8	132	35.7	129	25	47.2
COCC[n+]1c2c(n(Cc3cnccn3)c1C)C(=O)c1ccccc1C2=O + CN(C)S(=O)(=O)c1ccc2c(c1)/C(=C/c1cc3c([nH]1)CCCC3)C(=O)N2 [SU6656] (first compound 0.0004 µM, partner dose 0.4 µM)	164	40	166	216		76.8	62.3	105	136
C=CCNC1=C2C[C@@H](C)C[C@H](OC)[C@H](O)[C@@H](C)/C=C(\C)[C@H](OC(N)=O)[C@@H](OC)/C=C\C=C(/C)C(=O)NC(=CC1=O)C2=O [Tanespimycin] + Cn1nnc2c(C(N)=O)ncn2c1=O [temozolomide] (first compound 0.002 µM, partner dose 2 µM)	114	64.9	78.4	85.9	77.2	27.2			185
Cn1nnc2c(C(N)=O)ncn2c1=O [temozolomide] + Oc1nc(-c2ccc(C(F)(F)F)cc2)nc2c1CSCC2 [XAV939] (first compound 2 µM, partner dose 2 µM)	171	95.8	114	71.2		430	96.9	225	232
OCc1c[nH]c2ccccc12 [Indole-3-carbinol] + Clc1ccc(Nc2nnc(Cc3ccncc3)c3ccccc23)cc1 [vatalanib] (first compound 0.8 µM, partner dose 2 µM)	118	53	120	95.6		97.3			88
C[C@]1(c2nc3c(C(N)=O)cccc3[nH]2)CCCN1 [Veliparib] + COc1cc2c(Oc3ccc4[nH]c(C)cc4c3F)ncnc2cc1OCCCN1CCCC1 [cediranib] (first compound 1.4 µM, partner dose 0.4 µM)	53	97.9	33.8	50.4		140	41.8	27.8	127
Cn1nnc2c(C(N)=O)ncn2c1=O [temozolomide] + Cc1cc([N+](=O)[O-])ccc1NS(=O)(=O)c1cc(Cl)ccc1Cl [FH535] (first compound 2 µM, partner dose 1 µM)	162	89.6	77.2	65.2		52.5	66.9	119	87.9
CC(=O)c1c(C)c2cnc(Nc3ccc(N4CCNCC4)cn3)nc2n(C2CCCC2)c1=O [palbociclib] + COc1cc(Nc2ncc(F)c(Nc3ccc4c(n3)NC(=O)C(C)(C)O4)n2)cc(OC)c1OC [Tamatinib] (first compound 0.04 µM, partner dose 0.4 µM)	154	111	113	43.3		86.3	111	214	156
O=C(Nc1cccc(Cl)c1)Nc1ncc(CCNc2ncnc3ccsc23)s1 + CN(NC(=O)CC(=O)NN(C)C(=S)c1ccccc1)C(=S)c1ccccc1 [STA4783] (first compound 0.0008 µM, partner dose 0.006 µM)	174	51.4	99.6	71.6		65.2	56.9	102	96.3
Cc1cc(N2CCOCC2)cc2[nH]c(-c3c(NC[C@@H](O)c4cccc(Cl)c4)cc[nH]c3=O)nc12 + CC(C)CCN1c2nc(Nc3cc(F)c(O)c(F)c3)ncc2N(C)C(=O)C1C [BID1870] (first compound 0.2 µM, partner dose 0.2 µM)	103	49.7	77.1	96.8		58.6	60	117	76.3
Cn1nnc2c(C(N)=O)ncn2c1=O [temozolomide] + CCN(CC)CCCCNc1ncc2cc(-c3cc(OC)cc(OC)c3)c(NC(=O)NC(C)(C)C)nc2n1 [PD173074] (first compound 2 µM, partner dose 0.1 µM)	134	87.1	82.2	44		118	169	159	87.7
CC(C)(C)c1cnc(CSc2cnc(NC(=O)C3CCNCC3)s2)o1 + COc1cc2ncnc(Nc3ccc(Oc4ccccc4)cc3)c2cc1OC [SrcI1] (first compound 0.01 µM, partner dose 2 µM)	53	86.6	61.1	157		76.1	26	99.2	328
OCc1c[nH]c2ccccc12 [Indole-3-carbinol] + NCC(=O)Nc1ccc(-n2nc(C(F)(F)F)cc2-c2ccc3c(ccc4ccccc43)c2)cc1 [OSU03012] (first compound 0.8 µM, partner dose 1 µM)	99.1	260	44.7	38.1		129	97.1	85.3	183
Cc1cc(N2CCOCC2)cc2[nH]c(-c3c(NC[C@@H](O)c4cccc(Cl)c4)cc[nH]c3=O)nc12 + Oc1nc(-c2ccc(C(F)(F)F)cc2)nc2c1CSCC2 [XAV939] (first compound 0.2 µM, partner dose 2 µM)	106	130	94.4	129		98.3	62.1	88.3	80.7

2 records picked at random from the list so far:
Compound	cleaved PARP positive nuclei fraction (MeWo) [%]	cleaved PARP positive nuclei fraction (RPMI7951) [%]	cleaved PARP positive nuclei fraction (RVH-421) [%]	cleaved PARP positive nuclei fraction (SkMel28) [%]	cleaved PARP positive nuclei fraction (SkMel2) [%]	cleaved PARP positive nuclei fraction (SkMel30) [%]	cleaved PARP positive nuclei fraction (SkMel5) [%]	cleaved PARP positive nuclei fraction (UACC257) [%]	cleaved PARP positive nuclei fraction (UACC62) [%]
Cn1nnc2c(C(N)=O)ncn2c1=O [temozolomide] + CCN(CC)CCCCNc1ncc2cc(-c3cc(OC)cc(OC)c3)c(NC(=O)NC(C)(C)C)nc2n1 [PD173074] (first compound 2 µM, partner dose 0.1 µM)	134	87.1	82.2	44		118	169	159	87.7
Cc1cc(N2CCOCC2)cc2[nH]c(-c3c(NC[C@@H](O)c4cccc(Cl)c4)cc[nH]c3=O)nc12 + CC(C)CCN1c2nc(Nc3cc(F)c(O)c(F)c3)ncc2N(C)C(=O)C1C [BID1870] (first compound 0.2 µM, partner dose 0.2 µM)	103	49.7	77.1	96.8		58.6	60	117	76.3

Reference: the supplement of paper PMC4604168 (melanoma cell lines)
